Where a name gives a salt, the structure may show the parent alone. The list shows a part of the results. Most values lie at the level of the controls, where differences are scatter.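 A single-replicate pilot screen of approved drugs and clinical or known-target compounds measured melting temperature via differential scanning fluorimetry. Top stabilizing hits raised the melting point by 2 °C or more; negative shifts indicate destabilization.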

The test system of this assay is SARS-CoV-2 main protease (Mpro, nsp5). Description: thermal shift ΔTm of Mpro relative to plate average Tm; higher = stronger thermal stabilization of Mpro (binding). The settings on record: 10 µM; protein concentration 1 µM.
For `CC(=O)N1CCN(CCOc2ccc(C3CCN(C4=Nn5c(nnc5C(F)(F)F)CC4)CC3)cc2)CC1`, the “thermal shift ΔTm of Mpro” value was 0.0991 °C.

As for `O=C1N=C(N2CCOCC2)CN1c1ccc(Cl)cc1`, the “thermal shift ΔTm of Mpro” value is 0.192 °C.

For `C=CC(=O)Nc1ccc2ncnc(Nc3ccc(OCc4cccc(F)c4)c(Cl)c3)c2c1`, the “thermal shift ΔTm of Mpro” value was found to be 0.455 °C. The result for `CC(=O)NC1CCSC1=O` (configuration not stated) [Citiolone] reads 0.129 °C; that for `CC1=C(CC(=O)O)c2cc(F)ccc2/C1=C\c1ccc([S+](C)[O-])cc1` (configuration not stated) [Sulindac], 0.0185 °C. The result for `C[C@]12CC[C@@H]3c4ccc(O)cc4CC[C@H]3[C@@H]1C[C@@H](O)[C@@H]2O` [Estriol] reads -0.00864 °C; that for `Cc1nc(N)sc1-c1ccnc(Nc2ccc(N3CCOCC3)cc2)n1`, 0.0788 °C. On to `CCCCC(=O)O[C@]1(C(=O)CO)CC[C@H]2[C@@H]3CCC4=CC(=O)CC[C@]4(C)[C@H]3[C@@H](O)C[C@@]21C` [Hydrocortisone Valerate], for which the “thermal shift ΔTm of Mpro” value is -0.232 °C. Then `Cc1noc(NS(=O)(=O)c2ccc(N)cc2)c1C` [Sulfisoxazole], with 0.0557 °C; and `CCc1cccc2c3c([nH]c12)C(CC)(CC(=O)O)OCC3` (configuration not stated) [Etodolac], with 0.345 °C. As for `CCC[C@H](NC(=O)[C@@H]1[C@H]2CCC[C@H]2CN1C(=O)[C@@H](NC(=O)[C@@H](NC(=O)c1cnccn1)C1CCCCC1)C(C)(C)C)C(=O)C(=O)NC1CC1` [Telaprevir (VX-950)], the “thermal shift ΔTm of Mpro” value was 0.257 °C. The result for `C[C@@H]1CN(CC(=O)Nc2ccc3c(c2)Cc2cccc(-c4cc(=O)cc(N5CCOCC5)o4)c2S3)C[C@H](C)O1` reads -0.25 °C; that for `CSc1ccc(C(=O)/C=C/c2cc(C)c(OC(C)(C)C(=O)O)c(C)c2)cc1` [Elafibranor], -0.133 °C. The result for `O=C1CC(c2c[nH]c3ccc(F)cc23)C(=O)N1` (configuration not stated) reads 0.0304 °C.

Take `C/C(=N\NC(=O)c1cccc(S(=O)(=O)N2CCOCC2)c1)c1cc(Cl)ccc1O`: the “thermal shift ΔTm of Mpro” value stood at 0.039 °C. Then `O=C(NS(=O)(=O)c1ccc(Br)s1)c1ccc(Cl)cc1Cl` [Tasisulam], with 0.138 °C; and `OCCOCCN1CCN(C(c2ccccc2)c2ccc(Cl)cc2)CC1` (configuration not stated) [Hydroxyzine 2HCl], with 0.0609 °C; and `OCCOCCN1CCN(C(c2ccccc2)c2ccc(Cl)cc2)CC1` (configuration not stated) [Hydroxyzine Pamoate], with 0.263 °C. The result for `Cc1cc(CCCOc2c(C)cc(-c3noc(C(F)(F)F)n3)cc2C)on1` [Pleconaril] reads 0.0715 °C; that for `Cn1c2ccccc2c2c3c(c4c5ccccc5n(CCC#N)c4c21)CNC3=O`, -0.0614 °C; that for `CN(C)[C@@H]1C(=O)C(C(N)=O)=C(O)[C@@]2(O)C(=O)C3=C(O)c4c(O)cccc4[C@@](C)(O)[C@H]3[C@H](O)[C@@H]12` [Oxytetracycline Dihydrate], -0.0606 °C.

In the case of `CN(C)[C@@H]1C(=O)C(C(N)=O)=C(O)[C@@]2(O)C(=O)C3=C(O)c4c(O)cccc4[C@@](C)(O)[C@H]3[C@H](O)[C@@H]12` [Oxytetracycline (Terramycin)], the “thermal shift ΔTm of Mpro” value worked out at 0.0893 °C. The result for `COc1ccc(CNC(=O)Nc2ncc([N+](=O)[O-])s2)cc1` reads 0.153 °C. The result for `C=CC1=C(C(=O)O)N2C(=O)[C@@H](NC(=O)/C(=N\OCC(=O)O)c3csc(N)n3)[C@H]2SC1` [Cefixime] reads 0.0337 °C. Then `CN1C(=O)CCS(=O)(=O)C1c1ccc(Cl)cc1` (configuration not stated) [Chlormezanone], with 0.126 °C; and `Cc1cc(-n2c(=O)[nH]c(=O)n(C)c2=O)ccc1Oc1ccc(SC(F)(F)F)cc1` [Toltrazuril], with 0.067 °C. Consider `O=C(O)Cc1ccc(O)c([N+](=O)[O-])c1` [4-Hydroxy-3-nitrophenylacetic acid], for which the “thermal shift ΔTm of Mpro” value was found to be 0.0408 °C. With `Cc1ccccc1N1C(=O)c2cc(S(N)(=O)=O)c(Cl)cc2NC1C` (configuration not stated) [Metolazone], the “thermal shift ΔTm of Mpro” value amounted to 0.19 °C. Regarding `COc1cc(C)[nH]c(=O)c1CNC(=O)c1c(C)n([C@H](C)C2CCOCC2)c2ccccc12`, the “thermal shift ΔTm of Mpro” value is -0.0989 °C. The result for `[I-].[K+]` [Potassium Iodide] reads 0.0246 °C; that for `CC(=O)OC1C2CCC3C(C)(O)C4C5OC5C(C)(C)C4(O)C(O)CC13CC2(C)O` (configuration not stated) [Rhodojaponin V], -0.0617 °C; that for `O=C(Nc1ccc(-c2ccnc(Nc3ccc(N4CCOCC4)cc3)n2)cc1)C1CCCN1` (configuration not stated), -0.164 °C. Then `COc1nc(-c2ccc3c(c2)OCO3)n(-c2ccc(NC(=O)CSc3ccccc3)cc2)n1` [SecinH3], with -0.0598 °C.

As to `COc1ccc2[nH]c([S+]([O-])Cc3ncc(C)c(OC)c3C)nc2c1` (configuration not stated) [Omeprazole], the “thermal shift ΔTm of Mpro” value turned out to be 0.0474 °C. As for `COc1ccc(-c2ccccc2)cc1NS(=O)(=O)c1cc(Cl)cc(Cl)c1O`, the “thermal shift ΔTm of Mpro” value was determined as 0.0886 °C. Then `O=P1(N(CCCl)CCCl)NCCCO1` (configuration not stated) [Cyclophosphamide Monohydrate], with 0.023 °C; and `c1ccc2c(c1)sc1ccccc12` [Dibenzothiophene], with 0.00252 °C. Then `NC(=S)N/N=C/c1ncccc1N` [Triapine], with -0.233 °C; and `Nc1cccc2c1CN(C1CCC(=O)NC1=O)C2=O` (configuration not stated) [Lenalidomide (CC-5013)], with -0.138 °C; and `COc1cccc(CNc2ccc(S(=O)(=O)Nc3nc4ccccc4s3)cc2)c1O`, with -0.03 °C.

`O=S(=O)(O)CCCS(=O)(=O)O` [Eprodisate disodium]: the “thermal shift ΔTm of Mpro” value is -0.182 °C. The result for `C[C@H](Oc1cc(-c2cnn(C3CCNCC3)c2)cnc1N)c1c(Cl)ccc(F)c1Cl` [(S)-crizotinib] reads -0.395 °C; that for `CN(C)CCOC(=O)COc1ccc(Cl)cc1` [Meclofenoxate (Centrophenoxine) HCl], -0.0506 °C. Regarding `Brc1c(NC2=NCCN2)ccc2nccnc12` [Brimonidine Tartrate], the “thermal shift ΔTm of Mpro” value is 0.419 °C. The result for `CC[C@@H]1CN2CC[C@@]3(C(=O)Nc4ccccc43)[C@@H]2C[C@@H]1/C(=C\OC)C(=O)OC` [Corynoxine] reads -0.0625 °C; that for `CCOP(=S)(OCC)Oc1nc(Cl)c(Cl)cc1Cl` [Clorpyrifos], 0.221 °C; that for `CN(C)c1ccc2c(c1)Sc1cc(N(C)C)ccc1N2` [TRx0237 mesylate], 0.124 °C. The result for `O=C(/C=C/n1cnc(-c2cc(C(F)(F)F)cc(C(F)(F)F)c2)n1)N1CC(F)(F)C1` reads -0.0138 °C; that for `COc1ccc(/C=C2\CCCN=C2c2cccnc2)c(OC)c1` [GTS 21 dihydrochloride], 0.00864 °C; that for `N=C(N)N/N=C/c1c(Cl)cccc1Cl` [Guanabenz Acetate], 0.0502 °C. As for `Cc1ccc2c(Cl)cc(Cl)c(O)c2n1` [Chlorquinaldol], the “thermal shift ΔTm of Mpro” value turned out to be 0.0349 °C. For `C=CC/C(=N/OS(=O)(=O)O)S[C@@H]1O[C@H](CO)[C@@H](O)[C@H](O)[C@H]1O` [Allylglucosinolate monohydrate], the “thermal shift ΔTm of Mpro” value was determined as 0.0796 °C.

Source of the values: the supplement of paper PMC8166895.
